Experimental data taken from the RNAGym collection of RNA variant scans (doi:10.1126/science.aae0568).
Variants at the floor of the assay are shown more often than the library holds them.

B1: tRNA (parent)
chain: GUUCCGUUGGCGUAAUGGUAACGCGUCUCCCUCCUAAGGAGAAGACUGCGGGUUCGAGUCCCGUACGGAACG

Variants of: B1
Assay: yeast fitness relative to wild type (ratio to wild type); higher = fitter; tRNA-Arg(CCU), competitive growth, 37 C, YPD
Method in brief: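 Amplicons of the tRNA-Arg(CCU) gene were sequenced, 100-nucleotide paired-end, from the start population and from each end population of a pooled yeast competition. The competition, in six parallel replicates, lasted 24 hours in YPD at 37°C. Fitness relative to wild type was calculated from changes in genotype frequencies. Genotypes had to have ≥ 100 starting reads, and estimates < 0.5 were set to 0.5.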

Yeast fitness, 0.755:
U26G C62G

Yeast fitness, 0.594:
C27G A40G

Yeast fitness, 0.618:
U13A G18A A69U

Yeast fitness, 0.659:
A20U U32C A43G

Yeast fitness, 0.535:
G12A A20U U32A C49G G63A A65U

Yeast fitness, 0.642:
U8C G23C

Yeast fitness, 0.551:
A21G C22U C30G G51A A69U

Yeast fitness, 1.01:
C27A C30G A42C C61G

Yeast fitness, 0.907:
U19G C27G A65C C66G

Yeast fitness, ≤ 0.5:
U3G C4G C22U C29U
G6A A20G C24U A40G A43G C66U A70G
G6A C34G C62U G68C
C22G C24G C27G C60G
U2G G38A A42C U54C
U3C C11A C27G C33A A43C C46A C62A C66U
G18C C24U G51A A57U
C4A G10A C46U
A15G A37G C55A
C4A C11A C33G A37G A40C C49G G67C
C11A G23C C49G U53G A57G
A20G U35C A36G A42U
U2G G48C G52C
A21U C27G U32C
U2C C27G A36C
A15C A20C A21U C30U A40U
U13G C31G A43U C46G A70U
U16A G41C C62G
G10C C27G A42C C49A U54C
U13C U19G C22G C34U
U8A G18A C30A U32A U35G
G23A C49U C61A
C4U A15C C31A G63C
U2G C5U A15U G17A
C22U G44A C46G G51A G63A
U26C C30U U59A A69U
U16A A20U G50A C66G
C5U C24U U35C G38C C62U A69G
U7C C30U U59A
G6C U13C G50A
U7A A21U C46G
A15C A21U G23A
U7A C22A C24U A36U C61A
C11U A37G U54A A57G U59G
U7A U8A G10C A20G C27G C34G C55U
C30G U53C C55A U64A
A14C A20U C31G
A42C A57G C60G
C22G A45C G50C
C24G A36U A42U C49G U53A G58A C60A

Yeast fitness, 0.637:
C5U C24U A40G

Yeast fitness, 0.61:
G12A C29G

Yeast fitness, 0.538:
C5U C11U C60U A69U

Yeast fitness, 1.03:
U3A G51A A65G A69U

Yeast fitness, 0.59:
A14U G23U

Yeast fitness, 0.797:
A40U G67U

Yeast fitness, 0.611:
A14U C27G
